## Percent effect of library compounds

A: 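Phenotypic screen: M. tuberculosis growth, cholesterol and DPPC medium, 4 days; the read-out is not stated. Compounds at 50 µM. Direction is inferred from retests: higher values go with more growth inhibition. Of about 69,000 compounds tested this way, about 370 (0.54%) reached 50% or more in at least one test.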
B: 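Growth of Mycobacterium tuberculosis over 3 days (7H9 medium with glucose and tyloxapol); the read-out is not stated. Compounds at 50 µM. Direction is inferred from retests: higher values go with more growth inhibition. About 69,000 compounds were tested under these conditions; 1.1% (about 760) showed 50% or more at least once.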

Each number is a percent effect as filed. The controls that fix the scale are not given in the record; negative values are as filed. The compounds are a random part of those screened. Two or more numbers in one place are separate tests of the same structure; such repeats can differ widely.

structure: COCCNc1nc(-c2ccc(S(=O)(=O)N3CCCCC3)cc2)cs1
A: -4.875
B: -11.39

structure: CCCc1nc(CN(CC)C(=O)c2ccc(S(C)(=O)=O)cc2)no1
A: -4.482
B: 20.45

structure: Cc1cnn(CC(C)NCc2csc(-c3ncccn3)n2)c1 (centres undefined)
A: 4.572
B: -7.231

structure: COCCN1CC2(CCOCC2)c2cc(NC(=O)C3CC=CC3)ccc21.O=C(O)C(F)(F)F
A: 6.02
B: -9.251

structure: CC(=O)N1CCC2(CCN(C(=O)c3ccc(Cl)c(C(F)(F)F)c3)CC2)C1
A: 6.152
B: 17.63

structure: CC(C)c1nnc2n1CCN(CC(=O)N1CCc3sccc3C1)C2
A: 10.98
B: 22.91

structure: [H][C@@]12CC[C@H](Oc3ccccc3)[C@]1([H])CN(C(=O)COCC)C2
A: -29.57
B: 8.439

structure: Cc1nccc(N2CCN(C3CCOCC3)CC(C(=O)N(C)C)C2)n1 (centres undefined)
A: -1.467
B: 12.72

structure: O=C(O)C(F)(F)F.[H][C@]12CCN(C(=O)NCc3ccccc3)C[C@@]1([H])OCCN(C)C2
A: -24.47
B: -55.5

structure: CC1c2ncc(COc3cccnc3)n2CCN1Cc1ccco1 (centres undefined)
A: -21.27
B: 10.12

structure: CC1c2ncc(Cn3cncn3)n2CCN1C(=O)c1ccccn1 (centres undefined)
A: 3.512
B: -3.275

structure: [H][C@@]12CCN(C(=O)C3CCOCC3)C[C@@]1([H])O[C@H](c1ccncn1)C2
A: -9.558
B: -11.51

structure: Cc1nnc2n1CCN(C(=O)C1CCN(Cc3ccccc3)CC1)C2
A: -9.005
B: -35.31

structure: O=C(O)C(F)(F)F.O=C(O)C(F)(F)F.[H][C@@]12CCN(Cc3ccc4c(c3)OCO4)C[C@]1([H])[C@@H](CN1CCCC1)OC2
A: -12.34
B: -7.295 & -38.7

structure: COCCN1CCCn2c(nc(CNS(C)(=O)=O)cc2=O)C1.O=C(O)C(F)(F)F
A: -14.78
B: -18.89

structure: CC(=O)NC(C)C1=CCCN(Cc2ccc(C(=O)O)cc2)C1 (centres undefined)
A: -12.34
B: 2.952

structure: O=C(Nc1cc(C2CCOCC2)[nH]n1)c1cc[nH]n1
A: 0.002494
B: 2.113

structure: CCCNCc1ccc(-c2cc(N)nc3[nH]ccc23)cc1
A: -27.19
B: -21.96

structure: CC(Cn1cccn1)NCc1nc(-c2cccnc2)no1 (centres undefined)
A: 1.719
B: 7.592

structure: Cc1ccc(CN2CCOC3(CCCN(C(=O)c4ccco4)C3)C2)o1 (centres undefined)
A: 2.174
B: -3.147 & 4.28

structure: CCCc1cc(N2CCC(NC3CCS(=O)(=O)C3)CC2)nc(C)n1 (centres undefined)
A: 17.24
B: 6.713 & -22.02

structure: CC(C)(C)C(=O)N1CCC(n2nc(-c3ccco3)ccc2=O)CC1
A: -10.44
B: 4.613

Some entries from above, unchanged:

| structure | A | B |
|---|---|---|
| `O=C(O)C(F)(F)F.[H][C@]12CCN(C(=O)NCc3ccccc3)C[C@@]1([H])OCCN(C)C2` | -24.47 | -55.5 |
| `CC(C)(C)C(=O)N1CCC(n2nc(-c3ccco3)ccc2=O)CC1` | -10.44 | 4.613 |
| `CC(=O)N1CCC2(CCN(C(=O)c3ccc(Cl)c(C(F)(F)F)c3)CC2)C1` | 6.152 | 17.63 |

Measurements from “University of Dundee, Small-Polar-MMV Screening Library” (2021), ChEMBL document CHEMBL3988442.